Our source for the binding values is patent US20010036654A1.

This test concerns the target wheat (Triticum aestivum) acetyl-CoA carboxylase, 220-kDa biotinylated polypeptide (wheat (Triticum aestivum)). The test is described as follows: Western blot of leaf, chloroplast and wheat germ proteins probed with 35S-streptavidin. For orientation: A western blot detects proteins with antibodies after separation by electrophoresis.

No constants are given. Whether binding was seen depends on the method and setting. Some entries that bind do so weakly or less than the wild type.

As for “streptavidin (from UniProt P22629 37-163)”, the binding result was “binds”.
